Results: PMC9102551
These are yes or no findings as the source states them, for the method shown. In cells and extracts the contact can be indirect. Some binding calls cover weakened binding; strength is not graded here.

The chains behind the UniProt entries cited, without tags or fusion partners. Where a name states a change or a piece, a line headed by the entry shows the natural chain unless it says otherwise. A line that says so, or that is headed by a name, gives the form on record, which may keep a tag or linker.
UniProt Q7Z2W7: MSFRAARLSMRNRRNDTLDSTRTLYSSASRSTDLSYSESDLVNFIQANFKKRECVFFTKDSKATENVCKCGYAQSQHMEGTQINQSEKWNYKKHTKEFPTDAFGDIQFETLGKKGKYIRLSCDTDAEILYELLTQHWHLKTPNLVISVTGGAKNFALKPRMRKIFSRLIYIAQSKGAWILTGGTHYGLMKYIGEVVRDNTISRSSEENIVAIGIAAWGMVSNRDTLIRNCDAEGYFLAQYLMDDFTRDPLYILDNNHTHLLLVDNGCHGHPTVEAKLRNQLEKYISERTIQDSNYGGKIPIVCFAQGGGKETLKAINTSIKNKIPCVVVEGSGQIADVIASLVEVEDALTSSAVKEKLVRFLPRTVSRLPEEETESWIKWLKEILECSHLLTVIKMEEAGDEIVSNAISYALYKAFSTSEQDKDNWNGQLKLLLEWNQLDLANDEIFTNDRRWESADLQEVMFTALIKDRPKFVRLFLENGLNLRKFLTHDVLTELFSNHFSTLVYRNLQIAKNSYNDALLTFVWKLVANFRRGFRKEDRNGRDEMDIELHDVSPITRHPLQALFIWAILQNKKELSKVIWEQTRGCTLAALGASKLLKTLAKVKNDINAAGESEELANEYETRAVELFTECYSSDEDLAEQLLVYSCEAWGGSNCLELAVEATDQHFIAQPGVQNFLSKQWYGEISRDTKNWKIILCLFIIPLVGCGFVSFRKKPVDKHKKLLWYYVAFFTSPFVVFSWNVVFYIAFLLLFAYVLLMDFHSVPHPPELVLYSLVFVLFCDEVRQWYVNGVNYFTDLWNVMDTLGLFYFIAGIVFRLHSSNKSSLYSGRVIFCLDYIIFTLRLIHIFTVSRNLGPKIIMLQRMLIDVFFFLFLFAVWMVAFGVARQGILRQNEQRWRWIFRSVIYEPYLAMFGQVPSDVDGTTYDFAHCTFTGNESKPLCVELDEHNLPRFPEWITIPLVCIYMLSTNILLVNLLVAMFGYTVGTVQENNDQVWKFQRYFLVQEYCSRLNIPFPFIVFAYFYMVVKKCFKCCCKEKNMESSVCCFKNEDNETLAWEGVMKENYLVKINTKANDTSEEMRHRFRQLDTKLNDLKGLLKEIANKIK
GFP-Rap1A S17N (GFP-Rap1 N17) (P62834, form named): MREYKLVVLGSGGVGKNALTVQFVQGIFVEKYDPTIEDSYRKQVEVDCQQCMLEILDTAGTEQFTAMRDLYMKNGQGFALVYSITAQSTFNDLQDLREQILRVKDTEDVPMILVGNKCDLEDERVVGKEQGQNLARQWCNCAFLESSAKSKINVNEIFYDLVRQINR

Tests used:
[1] = biological target: His-tagged human TRPM8 wild type (His-tagged-hTRPM8pcDNA4) (human) (UniProt Q7Z2W7); assay: co-IP; lysates (1% CHAPS) of PC3M8 or PC3 cells transfected with TRPM8 and GFP-Rap1; His-tagged TRPM8 captured on His-Tag Dynabeads overnight at 4 °C in IP buffer (150 mM NaCl, 20 mM NaH2PO4, pH 8); blot with anti-GFP
[2] = biological target: His-tagged human TRPM8 E207A Y240A (human) (UniProt Q7Z2W7); assay: as above
[3] = biological target: His-tagged human TRPM8 wild type (His-tagged-hTRPM8pcDNA4) (human) (UniProt Q7Z2W7); assay: proximity ligation; Duolink PLA in fixed PC3 cells overexpressing TRPM8 (wt or E207A Y240A) and Rap1 N17; anti-TRPM8 and anti-GFP primary antibodies; confocal imaging
[4] = biological target: His-tagged human TRPM8 E207A Y240A (human) (UniProt Q7Z2W7); assay: as above

Measured: binding

GFP-Rap1A S17N (GFP-Rap1 N17) (from UniProt P62834 1-167)
binds: all assays above
